These molecules were tested on muscarinic cholinergic receptor (assay: [3H] Quinuclidinyl Benzilate (QNB) Binding Assay, cerebral cortex). Details: ratio of Ki values, 3H-QNB over 3H-CD, rat cerebral cortex.

Compound | Ratio ^3 H-QNB (ctx) / ^3 H-CD (ctx)
CN1C[C@@H]2C[C@H]1CN2c1cncc(Cl)n1 [Example 24, (S,S)-2-(6-Chloropyrazin-2-yl)-5-methyl-2.5-diazabicyclo[2.2.1]heptane] | 2.3
CN1C[C@@H]2C[C@H]1CN2c1ccc([N+](=O)[O-])s1 [Example 29, (S,S)-2-Methyl-5-(5-nitro-2-thienyl)-2,5-diazabicyclo[2.2.1]heptane] | 1.9
Cc1noc(N2C[C@H]3C[C@@H]2CN3)n1 [Example 18, (R,R)-2-(3-Methyl-1,2,4-oxadiazol-5-yl)-2,5-diazabicyclo[2.2.1]heptane] | 108.2
CN1C[C@@H]2C[C@H]1CN2c1nccnc1Cl [Example 23, (S,S)-2-(3-Chloropyrazin-2-yl)-5-methyl-2,5-diazabicyclo[2.2.1]heptane] | 2.6
Cl.c1cnc(N2C[C@@H]3C[C@H]2CN3)cn1 [Example 12, (S,S)-2-(2-Pyrazinyl)-2,5-diazabicyclo[2.2.1]heptane hydrochloride] | 8.8
CN1C[C@@H]2C[C@H]1CN2c1cnccn1 [Example 19, (S,S)-2-Methyl-5-(2-pyrazinyl)-2,5-diazabicyclo[2.2.1]heptane] | 13.8
Cc1nsc(N2C[C@H]3C[C@@H]2CN3)n1 [Example 14, (R,R)-2-(3-Methyl-1,2,4-thiadiazol-5-yl)-2,5-diazabicyclo[2.2.1]heptane] | 29
Cc1nccnc1N1C[C@@H]2C[C@H]1CN2C [Example 35, (S,S)-2-Methyl-5-(3-methylpyrizin-2-yl)-2,5-diazabicyclo[2.2.1]heptane] | 3.7
CC(C)(C)OC(=O)N1C[C@H]2C[C@@H]1CN2c1cnccn1 [Example 3, (R,R)-2-(tert-Butyloxycarbonyl)-5-(2-pyrazinyl)-2,5-diazabicyclo[2.2.1]heptane] | > 100
Cc1nsc(N2C[C@@H]3C[C@H]2CN3C)n1 [Example 26, (S,S)-2-Methyl-5-(3-methyl-1,2,4-thiadiazol-5-yl)-2,5-diazabicyclo[2.2.1]heptane] | 2.7
CN1C[C@@H]2C[C@H]1CN2c1ccccc1[N+](=O)[O-] [Example 30, (S,S)-2-Methyl-5-(2-nitrophenyl)-2,5-diazabicyclo[2.2.1]heptane] | 1.5
Cc1cnc(C)c(N2C[C@@H]3C[C@H]2CN3C)n1 [Example 22, (S,S)-2-(3,6-Dimethylpyrazin-2-yl)-5-methyl-2,5-diazabicyclo[2,2.1]heptane] | 1.9
COc1cncc(N2C[C@@H]3C[C@H]2CN3C)n1 [Example 32, (S,S)-2-Methyl-5-(6-methoxypyrazin-2-yl)-2,5-diazabicyclo[2.2.1]heptane] | 1.3
Cl.c1cnc(N2C[C@H]3C[C@@H]2CN3)cn1 [Example 11, (R,R)-2-(2-Pyrazinyl)-2,5-diazabicyclo[2.2.1]heptane hydrochloride] | 53.7

— patent US5478939A, “(R,R) and (S,S) 2,5-diazabicyclo [2,2,1]heptane derivatives” (priority 1994, dated 1995)
